Reference: paper doi:10.1101/2023.09.29.560207 (bioRxiv, 2023)
These are yes or no findings as the source states them, for the method shown. For part of these data: Binding seen in cells or lysates may run through a third protein. Some entries that bind do so weakly or less than the wild type. For part of these data: Sequences can lack the tags named with a protein.

Chains of the proteins cited; added tags and fusions are not shown. Lines headed by an entry give the natural chain unless they say otherwise; changes in a name come on top.
UniProt Q13148: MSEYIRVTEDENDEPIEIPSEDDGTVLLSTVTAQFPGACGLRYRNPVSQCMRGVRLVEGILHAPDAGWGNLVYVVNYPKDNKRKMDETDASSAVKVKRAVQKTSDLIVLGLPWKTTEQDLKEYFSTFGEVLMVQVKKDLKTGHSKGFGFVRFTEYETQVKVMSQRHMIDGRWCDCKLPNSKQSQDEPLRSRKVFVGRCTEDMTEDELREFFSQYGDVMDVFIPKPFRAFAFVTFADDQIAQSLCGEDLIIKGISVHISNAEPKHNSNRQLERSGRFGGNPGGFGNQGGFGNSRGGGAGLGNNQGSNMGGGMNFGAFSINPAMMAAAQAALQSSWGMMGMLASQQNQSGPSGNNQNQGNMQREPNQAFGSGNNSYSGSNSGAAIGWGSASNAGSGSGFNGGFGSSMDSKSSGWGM

How the values were obtained:
His-MBP-RGNEF^1–275 = target: T1, His-MBP-RGNEF^1–275 (human, UniProt Q8N1W1 1-275); test: SPR
T1 sequence (looked up): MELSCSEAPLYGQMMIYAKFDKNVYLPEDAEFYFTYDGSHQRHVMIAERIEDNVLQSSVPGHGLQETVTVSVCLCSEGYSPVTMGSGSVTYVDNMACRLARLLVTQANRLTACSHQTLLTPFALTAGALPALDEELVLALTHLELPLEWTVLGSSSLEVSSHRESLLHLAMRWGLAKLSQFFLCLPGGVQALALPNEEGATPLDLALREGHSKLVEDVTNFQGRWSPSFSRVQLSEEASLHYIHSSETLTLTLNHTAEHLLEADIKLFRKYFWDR

[1] = target: T2, NF242 with the small subunit of luciferase (SmBiT) fused to its carboxy-terminal end (human) (UniProt Q8N1W1); test: split reporter
T2 sequence: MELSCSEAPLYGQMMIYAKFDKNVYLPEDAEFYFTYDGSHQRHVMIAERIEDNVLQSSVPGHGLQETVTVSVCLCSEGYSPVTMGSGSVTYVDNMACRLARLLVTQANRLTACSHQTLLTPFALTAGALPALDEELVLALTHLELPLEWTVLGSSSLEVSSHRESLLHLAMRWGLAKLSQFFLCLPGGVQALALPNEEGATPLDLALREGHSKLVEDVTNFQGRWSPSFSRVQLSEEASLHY

[2] = target: T3, NF242-Δ77-79_P81G (human) (UniProt Q8N1W1); test: split reporter
T3 sequence: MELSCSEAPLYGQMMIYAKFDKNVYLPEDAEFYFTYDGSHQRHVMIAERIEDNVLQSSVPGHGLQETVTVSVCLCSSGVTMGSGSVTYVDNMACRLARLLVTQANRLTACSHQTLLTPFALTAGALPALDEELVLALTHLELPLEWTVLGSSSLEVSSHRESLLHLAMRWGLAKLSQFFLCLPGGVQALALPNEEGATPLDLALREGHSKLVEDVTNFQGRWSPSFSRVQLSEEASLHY

Row | Substance | binding (His-MBP-RGNEF^1–275) | binding [1] | also measured
1 | TDP-43^1–192 (NanoBiT construct) (from UniProt Q13148 1-192) (domain or fragment) |  | binds | 
2 | TDP-43^wt with the luciferase subunit fused to its carboxy-terminal end (from UniProt Q13148 1-414) |  |  | binding [2]: no binding
3 | TDP-43^1–366 (NanoBiT construct) (from UniProt Q13148 1-366) (domain or fragment) |  | binds | 
4 | His-RRM-2 (from UniProt Q13148 177-262) (domain or fragment) | binds weakly |  | 

Continued, in another order:

Row | binding (His-MBP-RGNEF^1–275) | binding [1] | Substance | also measured
5 | no binding |  | His-TDP-43^1–102 (from UniProt Q13148 1-102) (domain or fragment) | 
6 |  | binds | TDP-43^1–274 (NanoBiT construct) (from UniProt Q13148 1-274) (domain or fragment) | 
